{"source": "PubChem BioAssay (EPA / NIEHS)", "note": "The shares of active, inactive and inconclusive entries below differ from those in the screen. A potency beside an inconclusive call is a rough fit, not a confirmed value. Activity calls are given as the source filed them. How the source made its calls: active means hit-call score of the fitted dose curve at least 0.9, where 1 is the maximum; inconclusive means response in the unintended direction; inactive means score below 0.9."}
{"experiment": "ACEA_ER_AUC_viability: ACEA Biosciences xCELLigence Real-Time Cell Analysis on Estrogen Receptor Agonism for Viability (AID 2283782);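 further: hit means loss of impedance signal meaning reduced cell growth or viability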", "outline": "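Viability endpoint: reduced impedance area under the curve relative to DMSO, recorded by real-time electrode sensing over ~80 h of continuous exposure. Duplicate plates of T47D in hormone-depleted medium; eight concentrations, 1:4 dilutions, 100 uM maximum.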"}
{"smiles": "CCCCc1ccc2c(n1)[C@@H](c1ccc(OC)cc1C[C@H](C)C(=O)O)[C@H](C(=O)O)[C@H]2c1ccc2c(c1)OCO2", "AC50": "inconclusive: 98.5 µM"}
{"smiles": "N=C(N)c1ccc(OCCCCCOc2ccc(C(=N)N)cc2)cc1", "AC50": "active: 63.5 µM"}
{"smiles": "C1=COCCC1", "outcome": "inactive"}
{"smiles": "CC(C)COC(=O)C=Cc1ccccc1", "outcome": "inactive"}
{"smiles": "CCCCCCC(CCCCCCCCCCC(=O)OCC(COC(C)=O)OC(C)=O)OC(C)=O", "note": "(centres undefined)", "AC50": "inconclusive: 45.9 µM"}
{"smiles": "CCN(CC)c1ccc(N=Nc2ccccc2)cc1", "AC50": "inconclusive: 2.33 µM"}
{"smiles": "Cc1cc(O)c2c(c1)C(=O)c1cc(O)cc(O)c1C2=O", "AC50": "inconclusive: 10.2 µM"}
{"smiles": "O=P(O)(O)CCC(F)(F)C(F)(F)C(F)(F)C(F)(F)C(F)(F)C(F)(F)F", "AC50": "inconclusive: 0.074 µM"}
{"smiles": "CCN(CC)c1ccc(C=O)cc1", "AC50": "inconclusive: 0.145 µM"}
{"smiles": "COc1ccc(N)c(C)c1", "AC50": "inconclusive: 35 µM"}
{"smiles": "CN(C)C(=O)NC1(c2ccccc2)CCN(CCC[C@]2(c3ccc(Cl)c(Cl)c3)CCCN(C(=O)c3ccccc3)C2)CC1", "AC50": "active: 14.6 µM"}
{"smiles": "C[C@]12C=CC(=O)C=C1CC[C@@H]1[C@@H]2C(=O)C[C@@]2(C)[C@H]1CC[C@]2(O)C(=O)CO", "AC50": "inconclusive: 28.3 µM"}
{"smiles": "C=CCCCCCCCCC(=O)O", "AC50": "inconclusive: 50 µM"}
{"smiles": "O=C1C=CC(=O)O1", "outcome": "inactive"}
{"smiles": "CC(=O)OC/C=C(\\C)CCC=C(C)C", "outcome": "inactive"}
{"smiles": "CC(C)c1cc(C(C)C)cc(C(C)C)c1", "outcome": "inactive"}
{"smiles": "c1cc[nH]c1", "AC50": "active: 50 µM"}
{"smiles": "c1ccc2c(c1)[nH]c1ccccc12", "AC50": "active: 36.4 µM"}
{"smiles": "Nc1nc(=S)c2[nH]cnc2[nH]1", "AC50": "active: 0.237 µM"}
